Source: the supplement of paper PMC7661543
± gives the standard deviation of the averaged measurements. Differences between knockout arms are mostly noise.

Test system: ZR-75-1
Test: relative cell number vs DMSO control (72 h) (% of DMSO); higher = less growth inhibition (more cells)
Experimental: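 QMAP-Seq: a pool of 5 breast cancer cell lines (ZR-75-1, SKBR3, HCC-38, MDA-MB-231, BT-20), each carrying 12 doxycycline-inducible Cas9 sgRNA perturbations (11 knockouts plus non-targeting sgNT), was treated with compounds for 72 h at four 10-fold doses (10 nM-10 uM or 1 nM-1 uM range). Barcodes were amplified and sequenced, and cell number was interpolated from 293T spike-in standard curves. The result is expressed as % of the median of DMSO wells. Two biological replicates.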

[1] = sgRNA knockout: sgATF3, 1000 nM
[2] = sgRNA knockout: sgATF3, 10000 nM
[3] = sgRNA knockout: sgATF4, 1000 nM
[4] = sgRNA knockout: sgATF4, 10000 nM
[5] = sgRNA knockout: sgATF6, 1000 nM
[6] = sgRNA knockout: sgATF6, 10000 nM
[7] = sgRNA knockout: sgATG7, 1000 nM
[8] = sgRNA knockout: sgATG7, 10000 nM
[9] = sgRNA knockout: sgERN1, 1000 nM
[10] = sgRNA knockout: sgERN1, 10000 nM
[11] = sgRNA knockout: sgHSF2, 1000 nM
[12] = sgRNA knockout: sgHSF2, 10000 nM
[13] = sgRNA knockout: sgNFE2L2, 10 nM
[14] = sgRNA knockout: sgNFE2L2, 100 nM
[15] = sgRNA knockout: sgNFE2L2, 1000 nM
[16] = sgRNA knockout: sgNFE2L2, 10000 nM
[17] = sgRNA knockout: sgSLC35F2, 10 nM
[18] = sgRNA knockout: sgSLC35F2, 100 nM
[19] = sgRNA knockout: sgSLC35F2, 1000 nM
[20] = sgRNA knockout: sgSLC35F2, 10000 nM
[21] = sgRNA knockout: sgXBP1, 1000 nM
[22] = sgRNA knockout: sgXBP1, 10000 nM

| SMILES | relative cell number (sgRNA knockout: sgATF3, 10 nM) | relative cell number (sgRNA knockout: sgATF3, 100 nM) | relative cell number [1] | relative cell number (sgRNA knockout: sgATF4, 10 nM) | relative cell number (sgRNA knockout: sgATF4, 100 nM) | relative cell number [3] | relative cell number (sgRNA knockout: sgATF6, 10 nM) | relative cell number (sgRNA knockout: sgATF6, 100 nM) | relative cell number [5] | relative cell number (sgRNA knockout: sgATG7, 10 nM) | relative cell number (sgRNA knockout: sgATG7, 100 nM) | relative cell number [7] | relative cell number (sgRNA knockout: sgERN1, 10 nM) | relative cell number (sgRNA knockout: sgERN1, 100 nM) | relative cell number [9] | relative cell number (sgRNA knockout: sgHSF2, 10 nM) | relative cell number (sgRNA knockout: sgHSF2, 100 nM) | relative cell number [11] | relative cell number [13] | relative cell number [14] | further results |
| --- | --- | --- | --- | --- | --- | --- | --- | --- | --- | --- | --- | --- | --- | --- | --- | --- | --- | --- | --- | --- | --- |
| Clc1ccc(C2(c3ccc(-c4cn[nH]c4)cc3)CCNCC2)cc1 [AT7867] | 96.7 ± 23 | 139 ± 19 | 85.9 ± 12 | 87.7 ± 42 | 89.6 ± 26 | 83.4 ± 14 | 67.2 ± 13 | 130 ± 52 | 78.1 ± 39 | 79.6 ± 16 | 114 ± 44 | 74.4 ± 26 | 95.4 ± 22 | 102 ± 34 | 91.05 ± 0.87 | 90.2 ± 11 | 113.7 ± 0.55 | 64.8 ± 17 | 80.3 ± 14 | 114 ± 3.8 | relative cell number [2]: 10.2 ± 3.6; relative cell number [4]: 16.6 ± 2.7; relative cell number [6]: 13.8 ± 0.93; relative cell number [8]: 8.94 ± 1.6; relative cell number [10]: 13.2 ± 3.8; relative cell number [12]: 11.3 ± 2.9; relative cell number [15]: 87.2 ± 25; relative cell number [16]: 11.5 ± 0.16; relative cell number [17]: 118 ± 14; relative cell number [18]: 96.01 ± 0.6; relative cell number [19]: 26.5 ± 5.3; relative cell number [20]: 16.4 ± 1.7; relative cell number (sgRNA knockout: sgXBP1, 10 nM): 84.5 ± 1.5; relative cell number (sgRNA knockout: sgXBP1, 100 nM): 105 ± 20; relative cell number [21]: 78.4 ± 12; relative cell number [22]: 9.22 ± 5 |
| C[C@@H](Nc1cc(F)cc(F)c1)c1cc(C(=O)N(C)C)cc2c(=O)cc(N3CCOCC3)oc12 [AZD8186] | 124 ± 50 | 88.7 ± 29 | 104 ± 13 | 98.78 ± 0.38 | 118 ± 32 | 88.6 ± 16 | 82.7 ± 19 | 66.7 ± 2.4 | 92.5 ± 35 | 63 ± 0.65 | 98.7 ± 7.5 | 67.8 ± 1.9 | 87.1 ± 8.4 | 112 ± 37 | 72 ± 0.9 | 85.6 ± 38 | 88 ± 4.6 | 65.8 ± 14 | 92.4 ± 41 | 74.4 ± 3.6 | relative cell number [2]: 60.1 ± 8.9; relative cell number [4]: 59.3 ± 10; relative cell number [6]: 88 ± 28; relative cell number [8]: 57.9 ± 7.8; relative cell number [10]: 46.3 ± 6.4; relative cell number [12]: 65.4 ± 9.5; relative cell number [15]: 83.5 ± 5.6; relative cell number [16]: 53.2 ± 2.6; relative cell number [17]: 113 ± 2.7; relative cell number [18]: 128 ± 19; relative cell number [19]: 103 ± 19; relative cell number [20]: 70.2 ± 31; relative cell number (sgRNA knockout: sgXBP1, 10 nM): 92.9 ± 8.2; relative cell number (sgRNA knockout: sgXBP1, 100 nM): 78.7 ± 10; relative cell number [21]: 88.3 ± 4; relative cell number [22]: 52.6 ± 7.7 |
| CC(C)C[C@H](NC(=O)[C@H](Cc1ccccc1)NC(=O)c1cnccn1)B(O)O [Bortezomib] | 109 ± 45 | 21.5 ± 11 | 15.5 ± 4.3 | 97.7 ± 36 | 23.4 ± 6.9 | 15.9 ± 7.8 | 83.5 ± 6 | 11.1 ± 6.6 | 12.7 ± 0.68 | 111 ± 7 | 13.2 ± 10 | 18.8 ± 12 | 87 ± 31 | 18.8 ± 4.8 | 16.1 ± 1.7 | 105 ± 30 | 21.2 ± 3.8 | 12.5 ± 4.1 | 97.6 ± 20 | 17.2 ± 8.5 | relative cell number (sgRNA knockout: sgATF3, 1 nM): 108 ± 16; relative cell number (sgRNA knockout: sgATF4, 1 nM): 78.8 ± 8.8; relative cell number (sgRNA knockout: sgATF6, 1 nM): 64.5 ± 2.1; relative cell number (sgRNA knockout: sgATG7, 1 nM): 82.8 ± 13; relative cell number (sgRNA knockout: sgERN1, 1 nM): 86.5 ± 32; relative cell number (sgRNA knockout: sgHSF2, 1 nM): 89.9 ± 13; relative cell number (sgRNA knockout: sgNFE2L2, 1 nM): 104 ± 4.6; relative cell number [15]: 10.6 ± 0.18; relative cell number (sgRNA knockout: sgSLC35F2, 1 nM): 45.3 ± 34; relative cell number [17]: 111 ± 49; relative cell number [18]: 21.7 ± 16; relative cell number [19]: 11.2 ± 3.6; relative cell number (sgRNA knockout: sgXBP1, 1 nM): 86.6 ± 14; relative cell number (sgRNA knockout: sgXBP1, 10 nM): 93.9 ± 12; relative cell number (sgRNA knockout: sgXBP1, 100 nM): 24.6 ± 0.86; relative cell number [21]: 13.9 ± 0.42 |
| CC[C@H](Nc1ncnc2[nH]cnc12)c1nc2cccc(F)c2c(=O)n1-c1ccccc1 [CAL101] | 88.4 ± 20 | 110 ± 23 | 87.5 ± 19 | 99.2 ± 22 | 79.3 ± 11 | 98.7 ± 18 | 95.8 ± 41 | 66.5 ± 29 | 126 ± 14 | 80.9 ± 2.8 | 91.2 ± 33 | 84.7 ± 9.2 | 93.1 ± 17 | 81.4 ± 2 | 81.5 ± 8.7 | 106 ± 26 | 99.8 ± 25 | 105 ± 13 | 84.9 ± 14 | 104 ± 9.2 | relative cell number [2]: 106 ± 7.4; relative cell number [4]: 102 ± 3.6; relative cell number [6]: 48 ± 18; relative cell number [8]: 102 ± 40; relative cell number [10]: 79.8 ± 27; relative cell number [12]: 84.3 ± 22; relative cell number [15]: 92 ± 3.5; relative cell number [16]: 70.5 ± 2.5; relative cell number [17]: 89.6 ± 34; relative cell number [18]: 100 ± 76; relative cell number [19]: 72.6 ± 21; relative cell number [20]: 111 ± 60; relative cell number (sgRNA knockout: sgXBP1, 10 nM): 85.4 ± 12; relative cell number (sgRNA knockout: sgXBP1, 100 nM): 98.8 ± 6.6; relative cell number [21]: 91.7 ± 6.7; relative cell number [22]: 77.4 ± 18 |
| COc1cc2c(Oc3ccc4[nH]c(C)cc4c3F)ncnc2cc1OCCCN1CCCC1 [Cediranib] | 88.8 ± 20 | 90.1 ± 8.1 | 97.5 ± 4.8 | 127 ± 21 | 138 ± 66 | 104 ± 25 | 93.5 ± 12 | 108 ± 10 | 85.7 ± 2.5 | 83 ± 0.97 | 79.2 ± 32 | 90.1 ± 14 | 122 ± 1.9 | 95 ± 26 | 76.1 ± 29 | 75.5 ± 15 | 78 ± 17 | 97 ± 24 | 93.7 ± 1 | 93.8 ± 2.6 | relative cell number [2]: 17.4 ± 4.4; relative cell number [4]: 12.3 ± 0.14; relative cell number [6]: 7.18 ± 1; relative cell number [8]: 16.5 ± 2.8; relative cell number [10]: 13 ± 3.1; relative cell number [12]: 13.1 ± 2.2; relative cell number [15]: 83.1 ± 7.5; relative cell number [16]: 18.2 ± 4.5; relative cell number [17]: 136 ± 2.5; relative cell number [18]: 149 ± 18; relative cell number [19]: 141 ± 19; relative cell number [20]: 16.3 ± 7.1; relative cell number (sgRNA knockout: sgXBP1, 10 nM): 89 ± 2.5; relative cell number (sgRNA knockout: sgXBP1, 100 nM): 88.5 ± 24; relative cell number [21]: 65.5 ± 11; relative cell number [22]: 14.3 ± 0.44 |
